Laboratory results from PubChem BioAssay AID1347426 (Functional Genomics Laboratory (NCATS/FGL), 2020).
Among all 31,000 sequences or so, about 1,400 (4.5%) were called active.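 How the source made its calls: active means median seed-adjusted z-score above 1 or below -1; inactive means the rest.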 Some of the results follow.

assay: Novel Modifiers of Survival Motor Neuron (SMN) Protein: Gene Identification via Genome-wide siRNA Screen; conditions: HEK293T SMN2-luciferase reporter, siRNA knockdown, 72 h; actives lie on both sides;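 further: luminescence tracks full-length SMN protein made from the SMN2 reporter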
In short: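 Genome-wide siRNA screen (10418 genes, 3 siRNAs each, 1 pmol per well) by reverse transfection in HEK293T cells stably carrying an SMN2-luciferase reporter; luminescence after 72 hours, normalized to negative-control siRNA, log10-transformed, MAD-scored.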

Sequence | median seed-adjusted z-score
CCAGCAAAAUUACCAGAAUTT against YBX1 | inactive: -0.0115
GGUCAGGGCUUCUUACUUATT against KIF3B | inactive: 0.554
CGAUAAUCUUCUUAGAGUUTT against ADAM28 | inactive: 0.211
CAUCAUCACUGGAGCCCUUTT against CHN2 | inactive: -0.478
AGCACAAGGUGGAACCGGUTT against CYGB | inactive: -0.34
UGGUGCUUCUAUCCUAAUATT against TFF1 | inactive: -0.469
GGUUAUGACUGGGUUGGGATT against BEST3 | inactive: -0.211
CACUACUCAUUGUACAUGATT against ZNF268 | inactive: 0.0358
CCGGAACAGUUAUUAUGAATT against COG8 | inactive: 0.0438
GCUGCUACUUUGAAGUCCATT against FGG | inactive: -0.043
GGAGUUCGCUCAAGAUCCATT against ZSCAN21 | inactive: 0.687
AGCUCAAUCUGUCGAUGAATT against DUSP6 | inactive: 0
GAAUCCUUCCGUUCUAUCATT against RAB2B | inactive: 0.882
GCGGCAGCAUAUGGACUCATT against RNASE1 | inactive: 0.085
GCAAGAAGACGGUCAUCGATT against TFDP1 | inactive: 0.0449
GUUUGUAGGUCGUCAGAAATT against NDUFS6 | inactive: -0.0128
GCAGUACAACUACACUUUUTT against EIF4E2 | inactive: 0.0495
GAGCAAAUCAAAGAACUAATT against TSC22D1 | inactive: 0
CUUCGAUCCUUUUUCCGUATT against ARSI | inactive: 0
GAUCUUCUAUGAUACAGGATT against DPP8 | inactive: -0.0209
GCAUCGAAACAUUAGAGGATT against ZNF131 | inactive: 0.645
GUACCUACAUCAGAUCUAATT against RPN2 | inactive: -0.217

Sequence | median seed-adjusted z-score
UGCUAUUUCUAGACAUGAATT against LHX3 | inactive: 0.622
GGCUAUCAGGGAUUAGAUATT against ADAMTS19 | inactive: -0.39
CCUUCAAGCAGAAGUCCAATT against ZNF707 | inactive: -0.119
GCCUCGCACCAUUUACCUUTT against PFKFB2 | inactive: 0.311
AACGAAACCUGGUACCUGATT against DHCR7 | inactive: 0.00451
GCAUCGCAGAGUUCACACUTT against ZNF211 | inactive: -0.173
CUCUCAUCGUCAUCACUUUTT against SLC12A3 | inactive: -0.891
GCCCUUCUUCUACUCACUATT against DEGS2 | inactive: -0.305
UCUCAUUGCCGACCUCUUUTT against SPNS1 | inactive: -0.0598
CGAAACCAACUAUACGCUATT against ANGPTL3 | inactive: 0.117
CAAUGAAGAGGAUCGAAAATT against TES | inactive: -0.698
GGUUAUCCUAUCUAAAAGATT against VN1R2 | inactive: -0.151
GAAAGACUGUCCUAAGAUATT against ZNF193 | inactive: 0.276
GCACAGUUGUCAUCAACAUTT against LOX | inactive: -0.175
CUAUGAGUGUAAUUACUGUTT against ZNF189 | inactive: 0.0743
CAACCACCCUCAAUCGAGATT against FLRT3 | inactive: -0.468
GCACAAAAACUGUUUCCGATT against CSRP2 | inactive: -0.829
CCCAUUUCCUCAGUACCCATT against ABI3 | inactive: 0.114
GCGUGGAGCUGAGAGAUAATT against TNF | inactive: -0.138
GAAUUUCGAUGAGAGAAAATT against CCNC | inactive: -0.606
GAUGGUCGGUUGGAUCUAATT against SCGN | inactive: -0.0164
GCCACUCUCCGGACAGUUUTT against FOXD3 | inactive: 0.224

Copied from the results shown for reference:
Sequence | median seed-adjusted z-score
GAUCUUCUAUGAUACAGGATT against DPP8 | inactive: -0.0209
GCAUCGAAACAUUAGAGGATT against ZNF131 | inactive: 0.645
GUACCUACAUCAGAUCUAATT against RPN2 | inactive: -0.217
UGCUAUUUCUAGACAUGAATT against LHX3 | inactive: 0.622
GGCUAUCAGGGAUUAGAUATT against ADAMTS19 | inactive: -0.39
CCUUCAAGCAGAAGUCCAATT against ZNF707 | inactive: -0.119
GCCUCGCACCAUUUACCUUTT against PFKFB2 | inactive: 0.311
AACGAAACCUGGUACCUGATT against DHCR7 | inactive: 0.00451
GCAUCGCAGAGUUCACACUTT against ZNF211 | inactive: -0.173
CUCUCAUCGUCAUCACUUUTT against SLC12A3 | inactive: -0.891
GCCCUUCUUCUACUCACUATT against DEGS2 | inactive: -0.305
UCUCAUUGCCGACCUCUUUTT against SPNS1 | inactive: -0.0598
CGAAACCAACUAUACGCUATT against ANGPTL3 | inactive: 0.117
CAAUGAAGAGGAUCGAAAATT against TES | inactive: -0.698
GGUUAUCCUAUCUAAAAGATT against VN1R2 | inactive: -0.151
GAAAGACUGUCCUAAGAUATT against ZNF193 | inactive: 0.276
GCACAGUUGUCAUCAACAUTT against LOX | inactive: -0.175
CUAUGAGUGUAAUUACUGUTT against ZNF189 | inactive: 0.0743
CAACCACCCUCAAUCGAGATT against FLRT3 | inactive: -0.468
GCACAAAAACUGUUUCCGATT against CSRP2 | inactive: -0.829
CCCAUUUCCUCAGUACCCATT against ABI3 | inactive: 0.114
GCGUGGAGCUGAGAGAUAATT against TNF | inactive: -0.138

(list continues)

Sequence | median seed-adjusted z-score
GAAGUACGUUGGAUAUCAATT against ZMYM6 | inactive: -0.355
CAAUGGAAGUAGACGAUGATT against BPTF | inactive: -0.273
GGAUUUUCGAGAUCAGCGATT against NCOA5 | inactive: 0.947
GUUUGGAGUGUAAAGCGAATT against DDX59 | inactive: -0.859
GUACUGCGAGGAACCCUUUTT against PUS1 | inactive: -0.308
CCACUAAAUUUGAACUAGATT against CLP1 | inactive: -0.372
CCAGAGGAUUGUGACUUCATT against CAMP | inactive: -0.622
GGCUUUUACCCGCAUGUCATT against ZNF460 | inactive: -0.302
GCUUCGAAUGGAUCUAGAATT against MYH8 | inactive: 0.0648
CCAGAGGAGGUACUACAAATT against SCD | inactive: -0.982
CAACCUUAUUGAUAGAAGATT against MOBKL1A | inactive: 0.549
GCAACCAACUGGACGAAUUTT against FLRT2 | inactive: -0.00573
GCGGAGAUGUGAACGUGGATT against KRT16 | inactive: -0.233
ACAUGAAGACGGACUUUAATT against POP7 | inactive: 0.114
GCAUAUCCAUGGACUGAUATT against PDE5A | inactive: 0
CGAAUGCAUCAGAUCAACATT against UBA2 | inactive: 0.694
GACGAGACCUCUUCUCUCATT against ART1 | inactive: 0.0033
GAGCCUAUGUGGAGAAGUATT against RNPEPL1 | inactive: 0
CCGGCUACCUGAUCGUGUATT against PITPNM1 | inactive: -0.203
CCAUAGUGAAGCAAUCUAATT against ANGPTL3 | inactive: 0.117
AGGACUCUCUUGUCAGUCATT against KLF17 | inactive: -0.131
GAAUCGAAAGUUCUAGAAATT against EMR3 | inactive: 0.169

Sequence | median seed-adjusted z-score
GUGUUUCCGGAAGUGUAUATT against TIMM13 | inactive: -0.422
GGAUGGAGGGAAAAUUAUATT against NPR3 | inactive: -0.436
CGUGCACUAUAUUGCAGUUTT against PRMT2 | inactive: 0.0895
CACUGAAGAAUGCUGGUGATT against TRIM40 | inactive: 0.108
UUGUCAAGCUGGAGAAAAATT against WFDC3 | inactive: -0.644
GCAAGUCGAUGUCGUAAUATT against AHCYL1 | inactive: 0
GGAAUUUCCGAAACUAUAATT against SLC25A33 | inactive: -0.0252
GAACUUUAUUGCAAAGUUUTT against CSRP3 | inactive: 0.15
GAGCAGCUCUUAAGCAACATT against SAPS1 | active: 1.16
CAUUAACCAGUGAACGCAATT against AADAT | inactive: 0.0891
GCUGCUCUGUUGAUGCUUATT against POMT1 | inactive: 0.327
GUAUGUUGCAUAACAAGUUTT against NOX4 | inactive: -0.246
CAUUGAAGAAUUCCGAUUATT against TLR4 | inactive: 0.113
GGGCGAUACCUUGAAGUAATT against MOV10L1 | inactive: -0.0497
GCAAUUCACUACUUCCGUATT against UXS1 | inactive: 0.25
CAAUGAUGGUAAAUGUAAATT against AMY2A | inactive: -0.266
CCUAUUCAAUGAUAACAUUTT against RSPRY1 | inactive: 0.0814
GGAUUCUGCUAGUCCACGATT against TOP2A | inactive: -0.187
GGAUGAGAAGGCGCGCAUUTT against PPM1F | inactive: -0.231
GGACUGACUCGGGCAAUAATT against LRP8 | inactive: -0.547
GAGCUGAUCUGUUACAAGUTT against DAK | inactive: -0.372
CCAUCCCGAUGUCCAUGUUTT against ATP8B3 | inactive: 0

Sequence | median seed-adjusted z-score
GGCGGAAGCUCUACAUACATT against FLJ16165 | inactive: -0.404
CAGCAAAUUGUAGACAAAATT against PPP3R1 | inactive: 0.18
GAUUCAAUCUCCCAACUAUTT against TLL2 | inactive: 0.195
GCGUAACACCAAAACACCATT against UGCGL2 | inactive: -0.456
GCAUCAUCAAAAAUCCUAUTT against BAZ2A | inactive: 0.73
UGUGCGAACGAGUUCCAUATT against KCNA7 | inactive: 0.394
CAGUAUCUGCAUUCAAUCATT against MAPKAPK2 | inactive: -0.543
UCGGAGAAGUGAUUUCUUATT against MGMT | inactive: -0.0549
GCACCGUCAAGGAAGAUAATT against ADAMTSL1 | inactive: -0.107
GAUUCGACCAGUUAUUUGATT against SERBP1 | inactive: 0.143
GAAACUCCCUGUUCCUAGATT against SERPINA11 | inactive: -0.0879
CACCCAUGCUGACAGUGAATT against HLA-DMA | inactive: -0.00543
AAAGUAUAAUGACAUCUAUTT against NAP1L5 | inactive: 0.115
UGGGAUCUCCGGUUCCGAATT against RIPK4 | inactive: 0.188
CAUUGUCGUCAGUACCAUATT against FZD6 | inactive: 0.312
CUUGCUAACCCUAAAGGUATT against RECQL5 | inactive: 0
CCUUCAUCCGUAUCAUGGATT against POLD1 | inactive: -0.715
CAACCGCAGCGAGGAGUUUTT against TIMP1 | inactive: -0.0422
CAAUAGCUUUCACAAGCUUTT against SNX8 | inactive: 0.115
